Laboratory results taken from paper PMC7368061.

Tests used:
[1] = target: T1, SPDEF (recombinant, GST cleaved) (UniProt O95238); assay: EMSA; conditions: pure SPDEF, EMSA on 6% native polyacrylamide, binding buffer and temperature not given, lysate in 25 mM Tris-Cl pH 7.4, 150 mM KCl, 0.5% NP-40, protease inhibitors, recombinant protein, protein details: GST tag cleaved before EMSA (pGEX6p1), label: 32P 5' end
T1 sequence (looked up, limits assumed): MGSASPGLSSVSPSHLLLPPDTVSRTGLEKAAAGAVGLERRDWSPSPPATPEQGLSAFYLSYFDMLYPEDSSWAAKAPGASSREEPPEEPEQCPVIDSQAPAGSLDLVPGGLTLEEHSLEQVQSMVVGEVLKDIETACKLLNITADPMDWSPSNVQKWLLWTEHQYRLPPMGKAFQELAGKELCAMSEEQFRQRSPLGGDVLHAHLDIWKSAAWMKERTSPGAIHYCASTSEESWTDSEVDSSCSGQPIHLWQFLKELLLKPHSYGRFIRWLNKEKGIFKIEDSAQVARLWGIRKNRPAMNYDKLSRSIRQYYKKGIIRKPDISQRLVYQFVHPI

[2] = target: T2, SPDEF (endogenous, LNCaP nuclear lysate) (UniProt O95238); assay: EMSA; conditions: LNCaP nuclear lysate, EMSA on 6% native polyacrylamide, binding buffer and temperature not given, lysate in 25 mM Tris-Cl pH 7.4, 150 mM KCl, 0.5% NP-40, protease inhibitors, protein in an extract, label: 32P 5' end
T2 sequence (looked up, limits assumed): T1 sequence (looked up, limits assumed)

Question: Does “TATTTGTTTTGGGTGACACAATTCAACCGGTAACATATCCTGATCCTTGGC (double strand) [EMSA-A (rs72725854 non-risk allele A)]” bind ([1]; legend: differential affinities of T and A alleles)?
Answer: binds more weakly

Question: Does “TATTTGTTTTGGGTGACACAATTCAACCGGTAACATATCCTGATCCTTGGC (double strand) [EMSA-A (rs72725854 non-risk allele A)]” bind ([2]; only an unknown protein bound)?
Answer: no binding

Question: Which results are given for “TATTTGTTTTGGGTGACACAATTCATCCGGTAACATATCCTGATCCTTGGC (double strand) [EMSA-T (rs72725854 risk allele T)]”?
Answer: binding result [1]: binds; binding result ([2]; complex reduced with siSPDEF lysate): binds

The exact form of at least one protein or probe is not confirmed. For some of these results: Weaker means in comparison with the reference protein, sequence or condition of that experiment. At least one verdict rests on a figure or table, not on a statement of the authors. Protein sequences can lack the tags named with them. For some of these results: Where cells or extracts were used, other partners may take part. For some of these results: Negatives hold for the conditions tested.
